Melanoma cell counts after drug treatment

Data from the primary screen of doi:10.1371/journal.pone.0140310, rounded.

Drug key:
CHIR-265, 0.4 µM: Cn1c(Nc2ccc(C(F)(F)F)cc2)nc2cc(Oc3ccnc(-c4ncc(C(F)(F)F)[nH]4)c3)ccc21
VX-702, 2 µM: NC(=O)c1ccc(N(C(N)=O)c2c(F)cccc2F)nc1-c1ccc(F)cc1F
nilotinib, 1 µM: Cc1cn(-c2cc(NC(=O)c3ccc(C)c(Nc4nccc(-c5cccnc5)n4)c3)cc(C(F)(F)F)c2)cn1
T0901317, 7 µM: O=S(=O)(c1ccccc1)N(CC(F)(F)F)c1ccc(C(O)(C(F)(F)F)C(F)(F)F)cc1
CX-4945, 2 µM: O=C(O)c1ccc2c(c1)nc(Nc1cccc(Cl)c1)c1ccncc12
vorinostat, 0.4 µM: O=C(CCCCCCC(=O)Nc1ccccc1)NO
embelin, 6 µM: CCCCCCCCCCCC1=C(O)C(=O)C=C(O)C1=O
PD173074, 0.5 µM: CCN(CC)CCCCNc1ncc2cc(-c3cc(OC)cc(OC)c3)c(NC(=O)NC(C)(C)C)nc2n1
bexarotene, 10 µM: C=C(c1ccc(C(=O)O)cc1)c1cc2c(cc1C)C(C)(C)CCC2(C)C
cediranib, 2 µM: COc1cc2c(Oc3ccc4[nH]c(C)cc4c3F)ncnc2cc1OCCCN1CCCC1
GSK0660, 5 µM: COC(=O)c1sccc1S(=O)(=O)Nc1ccc(Nc2ccccc2)cc1OC
YM155, 0.002 µM: COCC[n+]1c2c(n(Cc3cnccn3)c1C)C(=O)c1ccccc1C2=O
erlotinib, 4 µM: C#Cc1cccc(Nc2ncnc3cc(OCCOC)c(OCCOC)cc23)c1
GW9662, 10 µM: O=C(Nc1ccccc1)c1cc([N+](=O)[O-])ccc1Cl
SNS-032, 0.05 µM: CC(C)(C)c1cnc(CSc2cnc(NC(=O)C3CCNCC3)s2)o1
BMS-536924, 1 µM: Cc1cc(N2CCOCC2)cc2[nH]c(-c3c(NC[C@@H](O)c4cccc(Cl)c4)cc[nH]c3=O)nc12
veliparib, 7 µM: C[C@]1(c2nc3c(C(N)=O)cccc3[nH]2)CCCN1
dorsomorphin, 2 µM: c1cc(-c2cnn3cc(-c4ccc(OCCN5CCCCC5)cc4)cnc23)ccn1
TCS401, 8.33 µM: O=C(O)C(=O)Nc1sc2c(c1C(=O)O)CCNC2
fludarabine, 1 µM: Nc1nc(F)nc2c1ncn2[C@@H]1O[C@H](CO)[C@@H](O)[C@@H]1O

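Human melanoma cells were exposed to a pair of drugs for 72 h in 1,536-well plates and read by automated microscopy after fixing and staining. The read-out is cell count (nuclei) in % of the DMSO control; lower values mean stronger growth inhibition or killing. Every drug was used at one fixed concentration, the higher of two screened. No replicate spread is given; individual values may be noisy.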 This is part of the screen, not chosen by result.

Combination	WM3619	WM451Lu	COLO 792
vorinostat and bexarotene	77.1	82.3	70.2
BMS-536924 and T0901317	93.0	98.5	70.6
GW9662 and PD173074	70.2	95.0	96.8
CHIR-265 and YM155	39.1	22.4	20.0
CX-4945 and TCS401	73.1	82.5	85.5
dorsomorphin and BMS-536924	65.9	70.0	59.4
CX-4945 and fludarabine	67.6	72.9	48.7
veliparib and nilotinib	69.6	112	92.8
T0901317 and bexarotene	66.0	63.9	102
cediranib and CX-4945	67.9	78.9	39.7
VX-702 and PD173074	109	117	91.4
CHIR-265 and VX-702	59.9	51.7	24.9
CX-4945 and GSK0660	75.5	82.8	72.0
bexarotene and embelin	93.5	85.5	67.2
SNS-032 and dorsomorphin	25.5	17.2	32.7
embelin and nilotinib	65.8	109	95.5
erlotinib and cediranib	90.8	100	46.0
CHIR-265 and bexarotene	35.0	52.8	28.8

2 of the entries, repeated:

| Combination | WM3619 | WM451Lu | COLO 792 |
|---|---|---|---|
| cediranib and CX-4945 | 67.9 | 78.9 | 39.7 |
| bexarotene and embelin | 93.5 | 85.5 | 67.2 |